Measurements published in article doi:10.1101/2023.12.13.571504 (bioRxiv, 2023).
The exact form of at least one protein or probe is not confirmed. At least one verdict rests on a figure or table, not on a statement of the authors. Protein sequences can lack the tags named with them.

Target: T1, GST-GRP8 WT (Arabidopsis thaliana) (UniProt Q03251)
T1 sequence (looked up): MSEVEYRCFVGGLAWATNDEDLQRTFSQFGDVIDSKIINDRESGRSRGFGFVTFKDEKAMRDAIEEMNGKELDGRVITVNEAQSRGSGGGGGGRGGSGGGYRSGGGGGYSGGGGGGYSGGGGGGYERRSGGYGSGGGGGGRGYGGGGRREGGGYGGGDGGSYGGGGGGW
Test: EMSA
Details: 2 ug yeast tRNA competitor; residues 1-169

GUUUUUGGUUUAGAUUUGGUUUUGUGU [GRP8-3UTR-WT-Cy5]
binding result: binds
